From the supplement of paper PMC12819154, “High-throughput peptide-centric local stability assay extends protein–ligand identification to membrane proteins, tissues and bacteria” (Nature Structural & Molecular Biology, 2025)
This is one part of the list. Most entries show no effect beyond the scatter of the controls.

Protein sequences, listed by entry. Tags and fused reporters are not part of them. Lines headed by an entry give the natural chain unless they say otherwise; changes in a name come on top.
UniProt Q6P1I3: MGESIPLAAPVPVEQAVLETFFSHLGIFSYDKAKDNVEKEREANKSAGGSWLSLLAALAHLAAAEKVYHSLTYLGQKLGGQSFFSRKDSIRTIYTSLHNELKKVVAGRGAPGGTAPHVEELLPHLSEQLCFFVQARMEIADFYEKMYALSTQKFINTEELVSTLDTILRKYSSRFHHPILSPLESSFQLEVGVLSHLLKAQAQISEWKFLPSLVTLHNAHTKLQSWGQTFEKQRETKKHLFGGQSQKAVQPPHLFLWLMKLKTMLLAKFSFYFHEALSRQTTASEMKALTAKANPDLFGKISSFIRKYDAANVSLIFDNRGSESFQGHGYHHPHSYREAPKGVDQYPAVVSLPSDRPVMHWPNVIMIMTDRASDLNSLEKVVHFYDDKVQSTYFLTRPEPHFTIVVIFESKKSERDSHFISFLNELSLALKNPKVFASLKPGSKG
UniProt Q6NVF9, whole entry: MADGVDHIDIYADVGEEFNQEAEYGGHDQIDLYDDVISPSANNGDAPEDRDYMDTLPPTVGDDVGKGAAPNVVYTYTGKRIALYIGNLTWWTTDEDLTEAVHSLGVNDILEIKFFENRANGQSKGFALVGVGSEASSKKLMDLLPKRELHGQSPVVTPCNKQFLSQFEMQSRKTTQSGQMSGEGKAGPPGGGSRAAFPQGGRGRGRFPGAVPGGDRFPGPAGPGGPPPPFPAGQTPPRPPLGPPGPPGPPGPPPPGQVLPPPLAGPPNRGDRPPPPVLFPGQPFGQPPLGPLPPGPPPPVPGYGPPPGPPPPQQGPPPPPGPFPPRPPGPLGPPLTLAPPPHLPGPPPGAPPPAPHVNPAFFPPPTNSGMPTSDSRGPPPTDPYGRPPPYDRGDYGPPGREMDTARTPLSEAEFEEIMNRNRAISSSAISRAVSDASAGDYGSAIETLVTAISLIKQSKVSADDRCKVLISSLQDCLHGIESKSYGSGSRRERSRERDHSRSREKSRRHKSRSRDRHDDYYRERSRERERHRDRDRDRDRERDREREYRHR
UniProt Q6RHR9: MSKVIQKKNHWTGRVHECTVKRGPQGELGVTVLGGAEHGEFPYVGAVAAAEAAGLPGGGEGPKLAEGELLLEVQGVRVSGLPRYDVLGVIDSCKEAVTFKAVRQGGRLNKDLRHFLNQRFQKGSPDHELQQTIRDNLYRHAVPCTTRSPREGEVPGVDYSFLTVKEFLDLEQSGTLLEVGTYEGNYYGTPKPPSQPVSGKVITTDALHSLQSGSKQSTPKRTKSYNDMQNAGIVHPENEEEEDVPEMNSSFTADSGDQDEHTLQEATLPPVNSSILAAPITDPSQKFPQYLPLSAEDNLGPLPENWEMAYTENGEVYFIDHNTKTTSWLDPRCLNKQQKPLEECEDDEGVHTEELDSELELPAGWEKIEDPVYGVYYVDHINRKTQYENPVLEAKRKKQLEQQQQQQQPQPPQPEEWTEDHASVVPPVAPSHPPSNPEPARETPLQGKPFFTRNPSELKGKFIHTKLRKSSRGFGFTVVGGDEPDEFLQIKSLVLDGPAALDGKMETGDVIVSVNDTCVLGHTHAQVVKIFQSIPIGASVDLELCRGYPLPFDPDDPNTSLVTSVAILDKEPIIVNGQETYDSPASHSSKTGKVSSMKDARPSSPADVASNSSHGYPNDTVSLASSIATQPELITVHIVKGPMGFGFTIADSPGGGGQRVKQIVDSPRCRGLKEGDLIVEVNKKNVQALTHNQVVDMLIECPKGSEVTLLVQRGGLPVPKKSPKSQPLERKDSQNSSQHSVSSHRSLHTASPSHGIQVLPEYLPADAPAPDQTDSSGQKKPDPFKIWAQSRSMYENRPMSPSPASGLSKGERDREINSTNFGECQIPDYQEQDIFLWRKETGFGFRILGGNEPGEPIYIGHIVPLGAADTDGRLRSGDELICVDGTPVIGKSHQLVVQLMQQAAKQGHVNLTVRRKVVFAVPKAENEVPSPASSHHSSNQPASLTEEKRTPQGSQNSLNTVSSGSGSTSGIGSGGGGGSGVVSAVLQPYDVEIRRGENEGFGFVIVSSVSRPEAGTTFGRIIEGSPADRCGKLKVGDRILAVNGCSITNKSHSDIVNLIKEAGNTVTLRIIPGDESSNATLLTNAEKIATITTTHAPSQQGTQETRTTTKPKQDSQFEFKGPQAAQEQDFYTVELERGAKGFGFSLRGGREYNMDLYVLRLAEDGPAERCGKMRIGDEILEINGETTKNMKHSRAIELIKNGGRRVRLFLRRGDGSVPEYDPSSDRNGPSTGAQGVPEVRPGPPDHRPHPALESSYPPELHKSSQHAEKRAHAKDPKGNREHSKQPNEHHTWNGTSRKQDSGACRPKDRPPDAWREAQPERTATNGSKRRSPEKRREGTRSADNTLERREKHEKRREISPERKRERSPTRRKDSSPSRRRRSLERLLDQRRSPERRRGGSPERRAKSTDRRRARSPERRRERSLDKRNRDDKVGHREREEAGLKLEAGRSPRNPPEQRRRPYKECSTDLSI
UniProt Q6P5D4: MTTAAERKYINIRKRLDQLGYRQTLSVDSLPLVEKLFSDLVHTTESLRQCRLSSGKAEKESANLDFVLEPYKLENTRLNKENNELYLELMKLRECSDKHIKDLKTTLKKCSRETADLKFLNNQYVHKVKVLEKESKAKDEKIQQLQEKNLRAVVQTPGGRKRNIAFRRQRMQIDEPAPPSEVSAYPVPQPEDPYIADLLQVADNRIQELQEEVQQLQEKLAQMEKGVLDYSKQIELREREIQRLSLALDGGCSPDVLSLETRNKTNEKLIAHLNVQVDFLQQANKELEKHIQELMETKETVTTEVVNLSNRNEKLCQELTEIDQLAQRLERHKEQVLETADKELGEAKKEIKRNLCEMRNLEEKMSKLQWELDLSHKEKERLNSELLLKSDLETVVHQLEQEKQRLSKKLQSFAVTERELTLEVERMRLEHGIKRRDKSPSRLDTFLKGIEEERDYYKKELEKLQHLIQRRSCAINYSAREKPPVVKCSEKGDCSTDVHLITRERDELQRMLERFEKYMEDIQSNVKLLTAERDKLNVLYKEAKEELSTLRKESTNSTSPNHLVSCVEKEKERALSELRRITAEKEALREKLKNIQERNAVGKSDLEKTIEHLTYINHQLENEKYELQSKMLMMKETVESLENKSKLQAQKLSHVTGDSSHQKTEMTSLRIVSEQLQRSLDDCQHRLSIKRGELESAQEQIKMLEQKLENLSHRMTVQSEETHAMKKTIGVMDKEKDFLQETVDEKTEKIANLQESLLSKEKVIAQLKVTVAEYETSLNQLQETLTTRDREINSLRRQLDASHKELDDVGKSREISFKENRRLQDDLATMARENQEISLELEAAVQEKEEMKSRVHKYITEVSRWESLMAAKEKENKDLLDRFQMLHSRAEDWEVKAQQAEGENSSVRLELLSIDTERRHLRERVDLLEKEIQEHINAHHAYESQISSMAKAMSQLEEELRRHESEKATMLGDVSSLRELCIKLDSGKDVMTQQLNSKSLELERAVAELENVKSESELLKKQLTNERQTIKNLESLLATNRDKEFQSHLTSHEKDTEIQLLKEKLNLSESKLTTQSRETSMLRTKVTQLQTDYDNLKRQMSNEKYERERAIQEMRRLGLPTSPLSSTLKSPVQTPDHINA
UniProt Q6R3M4: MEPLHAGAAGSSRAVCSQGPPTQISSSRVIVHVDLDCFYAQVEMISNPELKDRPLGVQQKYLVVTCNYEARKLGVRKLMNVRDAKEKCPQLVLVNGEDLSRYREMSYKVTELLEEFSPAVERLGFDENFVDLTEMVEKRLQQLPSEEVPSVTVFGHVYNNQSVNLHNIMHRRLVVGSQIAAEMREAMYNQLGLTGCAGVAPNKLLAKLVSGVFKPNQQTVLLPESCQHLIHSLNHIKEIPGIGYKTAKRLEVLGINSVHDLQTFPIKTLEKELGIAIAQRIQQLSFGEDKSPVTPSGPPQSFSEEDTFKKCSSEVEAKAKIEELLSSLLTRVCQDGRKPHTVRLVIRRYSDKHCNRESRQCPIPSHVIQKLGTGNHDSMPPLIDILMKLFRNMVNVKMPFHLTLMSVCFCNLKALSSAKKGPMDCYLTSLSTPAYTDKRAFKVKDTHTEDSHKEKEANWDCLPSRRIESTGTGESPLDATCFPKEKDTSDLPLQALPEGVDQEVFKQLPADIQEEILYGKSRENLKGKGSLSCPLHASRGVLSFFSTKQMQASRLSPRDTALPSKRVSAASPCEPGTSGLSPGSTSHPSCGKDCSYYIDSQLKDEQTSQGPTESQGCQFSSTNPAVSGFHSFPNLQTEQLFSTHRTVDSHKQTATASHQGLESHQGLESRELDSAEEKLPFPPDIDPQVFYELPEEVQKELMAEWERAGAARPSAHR
UniProt Q69ZT9: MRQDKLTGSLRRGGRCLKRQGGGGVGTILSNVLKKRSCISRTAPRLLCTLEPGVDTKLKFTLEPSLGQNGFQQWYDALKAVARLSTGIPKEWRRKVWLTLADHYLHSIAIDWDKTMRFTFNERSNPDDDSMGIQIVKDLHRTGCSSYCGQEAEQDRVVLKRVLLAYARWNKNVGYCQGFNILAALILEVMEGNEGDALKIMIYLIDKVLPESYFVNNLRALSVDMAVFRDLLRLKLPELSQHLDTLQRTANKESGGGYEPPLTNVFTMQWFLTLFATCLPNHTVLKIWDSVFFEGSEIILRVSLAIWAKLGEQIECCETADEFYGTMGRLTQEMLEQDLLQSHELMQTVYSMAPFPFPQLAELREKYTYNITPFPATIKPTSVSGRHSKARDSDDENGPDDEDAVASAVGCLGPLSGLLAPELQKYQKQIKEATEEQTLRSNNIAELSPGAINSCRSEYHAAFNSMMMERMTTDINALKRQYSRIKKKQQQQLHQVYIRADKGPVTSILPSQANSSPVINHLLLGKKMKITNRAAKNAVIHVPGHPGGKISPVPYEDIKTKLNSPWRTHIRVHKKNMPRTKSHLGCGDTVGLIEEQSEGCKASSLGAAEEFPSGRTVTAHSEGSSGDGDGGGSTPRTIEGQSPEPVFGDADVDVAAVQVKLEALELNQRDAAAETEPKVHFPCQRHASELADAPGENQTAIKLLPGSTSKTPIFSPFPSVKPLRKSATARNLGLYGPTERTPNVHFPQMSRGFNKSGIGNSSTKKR
UniProt Q6NT99: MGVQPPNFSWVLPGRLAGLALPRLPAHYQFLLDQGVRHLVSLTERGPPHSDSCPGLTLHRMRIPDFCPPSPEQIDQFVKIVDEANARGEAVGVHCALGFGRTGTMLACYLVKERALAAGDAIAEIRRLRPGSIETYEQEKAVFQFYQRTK
UniProt Q6A058: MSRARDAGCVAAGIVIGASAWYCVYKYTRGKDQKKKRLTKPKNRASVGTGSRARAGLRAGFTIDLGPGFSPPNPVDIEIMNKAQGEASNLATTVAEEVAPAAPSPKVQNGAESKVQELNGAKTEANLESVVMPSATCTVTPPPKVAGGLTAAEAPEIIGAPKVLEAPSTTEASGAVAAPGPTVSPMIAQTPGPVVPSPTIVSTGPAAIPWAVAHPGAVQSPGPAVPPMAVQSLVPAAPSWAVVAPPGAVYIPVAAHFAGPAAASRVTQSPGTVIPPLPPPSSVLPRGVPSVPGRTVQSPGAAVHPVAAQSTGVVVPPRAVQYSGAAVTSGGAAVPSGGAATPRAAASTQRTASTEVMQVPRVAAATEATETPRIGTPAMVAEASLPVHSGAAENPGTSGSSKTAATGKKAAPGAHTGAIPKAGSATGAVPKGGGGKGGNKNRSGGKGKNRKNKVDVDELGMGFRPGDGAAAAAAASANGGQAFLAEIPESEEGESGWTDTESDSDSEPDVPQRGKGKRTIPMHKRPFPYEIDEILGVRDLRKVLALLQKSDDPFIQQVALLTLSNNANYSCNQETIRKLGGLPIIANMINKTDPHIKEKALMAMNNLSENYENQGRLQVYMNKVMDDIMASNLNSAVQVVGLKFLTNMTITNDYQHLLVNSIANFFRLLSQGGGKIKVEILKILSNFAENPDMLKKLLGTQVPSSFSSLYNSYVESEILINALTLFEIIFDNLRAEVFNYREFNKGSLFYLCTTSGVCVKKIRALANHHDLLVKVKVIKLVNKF

Compound: CN[C@@H]1C[C@H]2O[C@@](C)([C@@H]1OC)n1c3ccccc3c3c4c(c5c6ccccc6n2c5c31)C(=O)NC4 [staurosporine]
Assay: log2 fold change of tryptic peptide abundance, ligand vs vehicle (limited proteolysis) (log2 ratio); higher = more trypsin-susceptible (destabilized)
Conditions: ligand concentration: 20 uM; sample: mouse liver crude lysate; replicate design: treated separately

| Target | log2 fold change |
| --- | --- |
| UniProt Q6PFD9 (peptide sequence: EYRPETGSWVFK, peptide start residue: 865) | -0.355 |
| UniProt Q6P1I3 (peptide sequence: LGGQSFFSR, peptide start residue: 78) | 0.46 |
| UniProt Q6NVF9 (peptide sequence: RELHGQSPVVTPCNK, peptide start residue: 147) | -0.2 |
| UniProt Q6RHR9 (peptide sequence: GLKEGDLIVEVNKK, peptide start residue: 671) | -0.934 |
| UniProt Q6P5D4 (peptide sequence: LSHVTGDSSHQK, peptide start residue: 652) | -1.48 |
| UniProt Q6R3M4 (peptide sequence: GSLSCPLHASR, peptide start residue: 529) | 0.419 |
| UniProt Q69ZT9 (peptide sequence: TPIFSPFPSVKPLRK, peptide start residue: 711) | -0.0582 |
| UniProt Q6NT99 (peptide sequence: IVDEANAR, peptide start residue: 80) | -0.197 |
| UniProt Q6A068 (peptide sequence: KKESDLPSAILQTSGVSEFTK, peptide start residue: 270) | -0.242 |
| UniProt Q6NS46 (peptide sequence: NRIEDPEINSIEDVKEGQLLR, peptide start residue: 1319) | -0.565 |
| UniProt Q6A058 (peptide sequence: AAPGAHTGAIPK, peptide start residue: 410) | 0.0254 |

Exported with each value named: entries from further up
UniProt Q6NS46 (peptide sequence: NRIEDPEINSIEDVKEGQLLR, peptide start residue: 1319)
  log2 fold change: -0.565
UniProt Q6A058 (peptide sequence: AAPGAHTGAIPK, peptide start residue: 410)
  log2 fold change: 0.0254
